# Reference: patent publication US20250250542A1, “CULTURE METHOD” (Quell Therapeutics Limited, priority 2023, published 2025)
# For at least one compound, name, drawing or mass did not settle the structure.
# Key:
# Type in all cases: cell-based, human
# [1] = test system: bulk Tregs from patient material; test: % of CD8+ cells at day 14 by FACS, expansion of patient bulk Tregs; conditions: compared to no rapa (control)
# IL-17 = IL-17 production by expansion products (cytometric bead array); conditions: patient material, day 14 Tregs stimulated 24 hours with CD3/CD28 dynabeads, compared to no rapa (control)
# IFNγ = IFNγ production by expansion products (cytometric bead array); conditions: patient material, day 14 Tregs stimulated 24 hours with CD3/CD28 dynabeads, compared to no rapa (control)
# T effector cells = test: Suppression assay: suppression of T effector cell proliferation by Treg cells; conditions: intermediate Treg:Teff ratios, compared to untreated (Ctrl) cells
# [2] = test system: transgene expressing Treg cells; test: Transgene expression: % killing with rituximab and rabbit complement (RQR8 safety switch); conditions: patient material, rituximab 12.5-200 μg/mL, compared to no rapa (control)
# CD45RA− Tregs = test: Total fold expansion of sorted CD45RA+ and CD45RA− Tregs; conditions: rapa condition (1 h+48h, 100 nM), donor 1 and donor 2, day 14
# FOXP3-TSDR = test: GMP process: demethylation of FOXP3-TSDR by methylation-specific qPCR; conditions: rapa condition, compared to no rapa condition
# [3] = test system: Tregs from healthy volunteers and liver transplant patients; test: GMP process: vector copy number by qPCR of WPRE per transduced cell; conditions: rapa condition, compared to no rapa condition
smiles,measurement,setting,value
CO[C@H]1C[C@@H]2CC[C@@H](C)[C@@](O)(O2)C(=O)C(=O)N2CCCC[C@H]2C(=O)O[C@H]([C@H](C)C[C@@H]2CC[C@@H](O)[C@H](OC)C2)CC(=O)[C@H](C)/C=C(\C)[C@@H](O)[C@@H](OC)C(=O)[C@H](C)C[C@H](C)/C=C/C=C/C=C/1C [rapamycin],% of CD8+ cells at day 14,[1]; 1+24 h condition,fewer CD8+ cells
same,% of CD8+ cells at day 14,[1]; 1+48h condition,fewer CD8+ cells
same,concentration of IL-17 produced by expansion products,IL-17; 1+24 h condition,reduced concentration
same,concentration of IL-17 produced by expansion products,IL-17; 1+48h condition,reduced concentration
same,concentration of IFNγ produced by expansion products,IFNγ; 1+24 h condition,reduced concentration
same,concentration of IFNγ produced by expansion products,IFNγ; 1+48h condition,reduced concentration
same,suppression of T effector cell (Teff) proliferation by Treg cells,T effector cells; 1+24 h condition,greater suppression of Teff proliferation
same,suppression of T effector cell (Teff) proliferation by Treg cells,T effector cells; 1+48h condition,greater suppression of Teff proliferation
same,"% killing with rituximab, normalized to % dextramer expression",[2]; 1+24 h condition,improved depletion
same,"% killing with rituximab, normalized to % dextramer expression",[2]; 1+48h condition,improved depletion
same,total fold expansion of RA− Tregs,CD45RA− Tregs,do not expand
same,% of demethylation of FOXP3-TSDR at day 14,FOXP3-TSDR,greater
same,VCN at day 14,[3],lower
